PubChem BioAssay AID1159578 | Peter MacCallum Cancer Centre – 2015
Here is one part, drawn at random, of about 18,000 reagents tested. About 1,030 of them (5.7%) were called active. 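Inactive calls also include pools with fewer than 3300 nuclei, whose migration was not assessed.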 The raw values are shown without normalisation. Further read-outs or replicates are left out here.

Screen: 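Genome-wide hunt for genes controlling movement of lymphatic endothelial cells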 (primary screen)
Cells: human lymphatic endothelial cells
Reagents: siRNA pool against human genes, 40 nM
Time to read-out: 48 h after transfection
Measurement: 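Cells stained with dye and imaged after a scratch; covered wound area and nuclei counted, duplicates averaged, migration set against mock wells and turned into a robust z-score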
Direction: migration robust z-score: higher = faster migration into the scratch; nuclei per well: higher = more cells in the well
Active means: 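Pools averaging fewer than 3300 nuclei are never called; remaining pools count as changed when migration robust z lies outside -2 to 2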
Calls: active = migration changed; inactive = no migration change, or too few cells

no.	target	migration robust z-score	migration class with cell-count check	nuclei per well, duplicate mean	call
1	ALG8 (ALG8 alpha-1,3-glucosyltransferase)	0.42	migration z between -2 and 2; enough cells	5974	inactive
2	TAS2R1 (taste 2 receptor member 1)	1.38	migration z between -2 and 2; enough cells	5858	inactive
3	EFCAB11 (EF-hand calcium binding domain 11)	-1.02	migration z between -2 and 2; enough cells	5799	inactive
4	CRK (CRK proto-oncogene, adaptor protein)	-0.96	migration z between -2 and 2; enough cells	5816	inactive
5	WRN (WRN RecQ like helicase)	-0.52	migration z between -2 and 2; enough cells	5648	inactive
6	GTF3C2 (general transcription factor IIIC subunit 2)	-1.79	migration z between -2 and 2; enough cells	5083	inactive
7	C8orf74 (chromosome 8 open reading frame 74)	-1.14	migration z between -2 and 2; enough cells	3336	inactive
8	RAB9B (RAB9B, member RAS oncogene family)	-0.1	migration z between -2 and 2; enough cells	5516	inactive

Continued; the last 3 above are carried over.
no.	target	migration robust z-score	migration class with cell-count check	nuclei per well, duplicate mean	call
6	GTF3C2 (general transcription factor IIIC subunit 2)	-1.79	migration z between -2 and 2; enough cells	5083	inactive
7	C8orf74 (chromosome 8 open reading frame 74)	-1.14	migration z between -2 and 2; enough cells	3336	inactive
8	RAB9B (RAB9B, member RAS oncogene family)	-0.1	migration z between -2 and 2; enough cells	5516	inactive
9	LPP	0.52	migration z between -2 and 2; enough cells	5882	inactive
10	RAPGEFL1 (Rap guanine nucleotide exchange factor like 1)	1.58	migration z between -2 and 2; enough cells	5516	inactive
11	SERPINA6 (serpin family A member 6)	-1.29	migration z between -2 and 2; enough cells	4995	inactive
12	ARID3A (AT-rich interaction domain 3A)	-1.01	migration z between -2 and 2; enough cells	5130	inactive
13	KIF16B (kinesin family member 16B)	0.18	migration z between -2 and 2; enough cells	5640	inactive
14	CACNA1D (calcium voltage-gated channel subunit alpha1 D)	-1.03	migration z between -2 and 2; enough cells	5846	inactive
15	ALDH18A1 (aldehyde dehydrogenase 18 family member A1)	-0.05	migration z between -2 and 2; enough cells	4582	inactive
16	WASF3 (WASP family member 3)	1.19	migration z between -2 and 2; enough cells	7412	inactive
17	RPAIN (RPA interacting protein)	-1.05	migration z between -2 and 2; enough cells	6631	inactive
18	FRAT2 (FRAT regulator of Wnt signaling pathway 2)	-1.07	migration z between -2 and 2; enough cells	5224	inactive
19	H2AC25 (H2A clustered histone 25)	-0.12	migration z between -2 and 2; enough cells	5500	inactive
20	LDAH (lipid droplet associated hydrolase)	-0.86	migration z between -2 and 2; enough cells	5779	inactive
21	TEKT4 (tektin 4)	-0.56	migration z between -2 and 2; enough cells	5295	inactive
22	WASF2 (WASP family member 2)	-2.87	under 3300 nuclei; migration not judged	2430	inactive
23	RAVER2 (ribonucleoprotein, PTB binding 2)	1.88	migration z between -2 and 2; enough cells	5844	inactive
